Some results were stated once for a whole list of compounds, not compound by compound.
Molecular target: T1, Human RORγ Ligand Binding Domain (RORγ-LBD) (Homo sapiens, UniProt P51449)
T1 construct: His6 plus thrombin site) (N); made in house; host or cells: E. coli BL21(DE3), modified pET21a
T1 sequence (P51449 263-518): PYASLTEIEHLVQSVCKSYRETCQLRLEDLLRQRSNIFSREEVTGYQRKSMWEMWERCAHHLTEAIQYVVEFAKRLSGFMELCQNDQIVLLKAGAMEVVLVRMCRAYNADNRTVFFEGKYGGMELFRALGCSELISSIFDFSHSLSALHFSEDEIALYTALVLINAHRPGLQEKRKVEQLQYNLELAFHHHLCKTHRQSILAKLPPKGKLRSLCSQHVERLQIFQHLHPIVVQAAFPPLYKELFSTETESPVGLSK
Experiment: Dual Fluorescence Energy Transfer (FRET) assay: RORγ-LBD / SRC1(2) co-activator peptide interaction
Format: biochemical
Settings: RORγ-LBD/SRC1(2) peptide interaction
From the text: Dual Fluorescence Energy Transfer (FRET) Assay
This assay is based on the knowledge that nuclear receptors interact with cofactors (transcription factors) in a ligand dependent manner. RORγ is a typical nuclear receptor in that it has an AF2 domain in the ligand binding domain (LBD) which interacts with co-activators. The sites of interaction have been mapped to the LXXLL (SEQ ID NO:1) motifs in the co-activator SRC1(2) sequences. Short peptide sequences containing the LXXLL (SEQ ID NO:1) motif mimic the behavior of full-length co-activator.
This assay measures ligand-mediated interaction of the co-activator peptide with the purified bacterial-expressed RORγ ligand binding domain (RORγ-LBD) to indirectly assess ligand binding. RORγ has a basal level of interaction with the co-activator SRC1(2) in the absence of ligand, Thus, it is possible to find ligands that inhibit or enhance the RORγ/SRC1(2) interaction.
Human RORγ Ligand Binding Domain (RORγ-LBD) was expressed in E. coli strain BL21(DE3) as an amino-terminal polyhistidine tagged fusion protein. […]
Approximately 50 g E. coli cell pellet was resuspended in 300 mL of lysis buffer (30 mM imidazole pH 7.0 and 150 mM NaCl). […] After washing to baseline absorbance with the equilibration buffer, the column was developed with a gradient from 30 to 500 mM imidazole pH 7.0. […]

## Cc1ccc(N(CC(C)C)S(=O)(=O)c2ccc(OCc3ccncc3)cc2)c(C)c1.Cl [Product P123]
  mean pIC50: ≥ 7.8

— patent US9150508B2, “Sulfonamide compounds and their use in the modulation retinoid-related orphan receptor” (Glaxo Group Limited, priority 2011, dated 2015)
